# Measured values: the supplement of paper PMC10849652
# The chains behind the UniProt entries cited, without tags or fusion partners. Where a name states a change or a piece, a line headed by the entry shows the natural chain unless it says otherwise.
# UniProt Q01415: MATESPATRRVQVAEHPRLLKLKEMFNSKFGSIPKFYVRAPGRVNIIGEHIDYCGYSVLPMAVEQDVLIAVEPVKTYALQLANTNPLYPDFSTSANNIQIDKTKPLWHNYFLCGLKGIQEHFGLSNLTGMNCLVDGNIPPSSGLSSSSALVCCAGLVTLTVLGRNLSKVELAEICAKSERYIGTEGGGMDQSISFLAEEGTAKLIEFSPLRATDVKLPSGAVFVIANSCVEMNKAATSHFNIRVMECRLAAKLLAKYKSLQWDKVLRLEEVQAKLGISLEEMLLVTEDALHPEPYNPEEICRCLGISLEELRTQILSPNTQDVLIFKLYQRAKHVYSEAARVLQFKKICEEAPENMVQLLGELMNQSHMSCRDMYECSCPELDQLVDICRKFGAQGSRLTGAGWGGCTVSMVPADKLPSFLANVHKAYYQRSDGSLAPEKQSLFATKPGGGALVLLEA
# UniProt P57678: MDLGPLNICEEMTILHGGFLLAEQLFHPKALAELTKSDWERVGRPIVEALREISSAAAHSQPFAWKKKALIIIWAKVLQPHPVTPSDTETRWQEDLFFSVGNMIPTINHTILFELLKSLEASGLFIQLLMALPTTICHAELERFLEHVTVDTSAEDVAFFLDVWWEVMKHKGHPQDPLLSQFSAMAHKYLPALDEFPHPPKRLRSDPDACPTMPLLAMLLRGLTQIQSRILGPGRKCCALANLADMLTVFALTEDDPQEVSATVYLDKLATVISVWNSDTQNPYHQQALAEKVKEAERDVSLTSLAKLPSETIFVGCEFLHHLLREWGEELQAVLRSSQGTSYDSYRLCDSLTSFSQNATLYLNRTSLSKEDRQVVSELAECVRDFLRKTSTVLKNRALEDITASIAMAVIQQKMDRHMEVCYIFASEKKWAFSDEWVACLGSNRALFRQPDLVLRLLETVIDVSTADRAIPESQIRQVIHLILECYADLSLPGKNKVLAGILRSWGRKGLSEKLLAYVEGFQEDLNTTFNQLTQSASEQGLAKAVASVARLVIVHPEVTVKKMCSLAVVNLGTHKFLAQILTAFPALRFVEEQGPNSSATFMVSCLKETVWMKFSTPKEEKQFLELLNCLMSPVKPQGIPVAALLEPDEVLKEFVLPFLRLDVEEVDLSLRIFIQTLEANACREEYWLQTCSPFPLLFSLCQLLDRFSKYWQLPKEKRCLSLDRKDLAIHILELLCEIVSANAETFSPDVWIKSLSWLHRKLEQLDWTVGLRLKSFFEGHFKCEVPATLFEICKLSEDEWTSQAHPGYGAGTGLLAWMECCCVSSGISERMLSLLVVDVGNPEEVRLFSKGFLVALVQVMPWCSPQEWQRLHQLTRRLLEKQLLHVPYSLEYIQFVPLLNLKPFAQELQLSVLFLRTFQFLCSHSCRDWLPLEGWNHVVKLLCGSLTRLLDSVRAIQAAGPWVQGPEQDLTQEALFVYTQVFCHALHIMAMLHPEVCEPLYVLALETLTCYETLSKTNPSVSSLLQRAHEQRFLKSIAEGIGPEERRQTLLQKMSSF
# UniProt Q9BWH2: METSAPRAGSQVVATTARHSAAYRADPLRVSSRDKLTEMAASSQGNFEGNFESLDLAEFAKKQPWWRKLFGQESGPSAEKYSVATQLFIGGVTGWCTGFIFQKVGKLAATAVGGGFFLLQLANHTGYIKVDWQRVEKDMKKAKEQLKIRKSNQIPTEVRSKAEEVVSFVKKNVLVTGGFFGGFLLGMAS
# UniProt O95749: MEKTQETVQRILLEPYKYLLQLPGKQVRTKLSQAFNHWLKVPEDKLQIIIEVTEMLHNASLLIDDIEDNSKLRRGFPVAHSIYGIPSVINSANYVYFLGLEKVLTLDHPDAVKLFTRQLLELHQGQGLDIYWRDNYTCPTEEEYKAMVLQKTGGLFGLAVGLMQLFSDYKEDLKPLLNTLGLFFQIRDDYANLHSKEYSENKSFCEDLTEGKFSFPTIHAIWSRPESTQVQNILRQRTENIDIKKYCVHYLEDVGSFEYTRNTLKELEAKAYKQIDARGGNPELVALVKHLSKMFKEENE
# UniProt Q06210: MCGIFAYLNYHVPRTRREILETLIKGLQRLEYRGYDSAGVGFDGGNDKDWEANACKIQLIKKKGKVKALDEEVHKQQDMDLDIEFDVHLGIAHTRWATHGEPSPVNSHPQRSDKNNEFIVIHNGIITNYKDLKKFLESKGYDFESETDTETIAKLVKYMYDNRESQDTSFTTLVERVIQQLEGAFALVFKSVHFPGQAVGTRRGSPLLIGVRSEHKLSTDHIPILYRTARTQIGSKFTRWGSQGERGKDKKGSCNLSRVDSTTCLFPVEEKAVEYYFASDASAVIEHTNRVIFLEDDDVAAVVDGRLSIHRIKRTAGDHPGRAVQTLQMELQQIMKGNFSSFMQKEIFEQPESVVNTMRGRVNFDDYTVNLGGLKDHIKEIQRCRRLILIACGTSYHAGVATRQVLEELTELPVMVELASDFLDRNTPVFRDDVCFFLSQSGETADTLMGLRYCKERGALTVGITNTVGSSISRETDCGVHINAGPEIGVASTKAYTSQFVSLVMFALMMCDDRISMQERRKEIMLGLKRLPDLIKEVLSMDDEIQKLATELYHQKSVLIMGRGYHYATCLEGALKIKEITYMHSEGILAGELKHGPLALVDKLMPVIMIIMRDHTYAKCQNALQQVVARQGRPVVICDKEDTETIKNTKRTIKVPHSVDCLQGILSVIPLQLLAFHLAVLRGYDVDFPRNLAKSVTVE
# UniProt Q8NCL4: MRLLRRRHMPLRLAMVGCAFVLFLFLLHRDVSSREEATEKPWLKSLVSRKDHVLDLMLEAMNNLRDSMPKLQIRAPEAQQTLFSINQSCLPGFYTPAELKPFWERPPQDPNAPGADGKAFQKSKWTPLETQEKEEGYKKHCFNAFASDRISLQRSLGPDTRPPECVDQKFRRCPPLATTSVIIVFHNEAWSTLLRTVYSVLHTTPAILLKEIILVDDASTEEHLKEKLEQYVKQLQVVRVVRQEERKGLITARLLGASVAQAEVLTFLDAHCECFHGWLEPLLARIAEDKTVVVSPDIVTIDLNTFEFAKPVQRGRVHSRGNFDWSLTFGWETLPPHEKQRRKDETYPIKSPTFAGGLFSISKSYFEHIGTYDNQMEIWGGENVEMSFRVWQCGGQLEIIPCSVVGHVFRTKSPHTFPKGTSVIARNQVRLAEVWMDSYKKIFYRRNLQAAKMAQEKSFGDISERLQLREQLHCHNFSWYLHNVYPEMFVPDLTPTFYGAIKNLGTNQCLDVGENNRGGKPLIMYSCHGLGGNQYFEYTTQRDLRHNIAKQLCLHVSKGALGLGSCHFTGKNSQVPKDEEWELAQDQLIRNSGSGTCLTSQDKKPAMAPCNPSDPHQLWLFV
# UniProt Q9UET6: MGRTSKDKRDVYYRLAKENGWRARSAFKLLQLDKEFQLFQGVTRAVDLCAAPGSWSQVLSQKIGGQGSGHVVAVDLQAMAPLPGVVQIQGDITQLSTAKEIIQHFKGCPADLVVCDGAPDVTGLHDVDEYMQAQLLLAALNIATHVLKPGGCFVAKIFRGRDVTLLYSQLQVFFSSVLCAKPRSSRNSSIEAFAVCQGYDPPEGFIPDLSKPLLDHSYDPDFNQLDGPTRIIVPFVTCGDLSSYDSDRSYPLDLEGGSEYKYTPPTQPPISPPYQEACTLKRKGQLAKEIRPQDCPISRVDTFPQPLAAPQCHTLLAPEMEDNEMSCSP
# UniProt Q14697: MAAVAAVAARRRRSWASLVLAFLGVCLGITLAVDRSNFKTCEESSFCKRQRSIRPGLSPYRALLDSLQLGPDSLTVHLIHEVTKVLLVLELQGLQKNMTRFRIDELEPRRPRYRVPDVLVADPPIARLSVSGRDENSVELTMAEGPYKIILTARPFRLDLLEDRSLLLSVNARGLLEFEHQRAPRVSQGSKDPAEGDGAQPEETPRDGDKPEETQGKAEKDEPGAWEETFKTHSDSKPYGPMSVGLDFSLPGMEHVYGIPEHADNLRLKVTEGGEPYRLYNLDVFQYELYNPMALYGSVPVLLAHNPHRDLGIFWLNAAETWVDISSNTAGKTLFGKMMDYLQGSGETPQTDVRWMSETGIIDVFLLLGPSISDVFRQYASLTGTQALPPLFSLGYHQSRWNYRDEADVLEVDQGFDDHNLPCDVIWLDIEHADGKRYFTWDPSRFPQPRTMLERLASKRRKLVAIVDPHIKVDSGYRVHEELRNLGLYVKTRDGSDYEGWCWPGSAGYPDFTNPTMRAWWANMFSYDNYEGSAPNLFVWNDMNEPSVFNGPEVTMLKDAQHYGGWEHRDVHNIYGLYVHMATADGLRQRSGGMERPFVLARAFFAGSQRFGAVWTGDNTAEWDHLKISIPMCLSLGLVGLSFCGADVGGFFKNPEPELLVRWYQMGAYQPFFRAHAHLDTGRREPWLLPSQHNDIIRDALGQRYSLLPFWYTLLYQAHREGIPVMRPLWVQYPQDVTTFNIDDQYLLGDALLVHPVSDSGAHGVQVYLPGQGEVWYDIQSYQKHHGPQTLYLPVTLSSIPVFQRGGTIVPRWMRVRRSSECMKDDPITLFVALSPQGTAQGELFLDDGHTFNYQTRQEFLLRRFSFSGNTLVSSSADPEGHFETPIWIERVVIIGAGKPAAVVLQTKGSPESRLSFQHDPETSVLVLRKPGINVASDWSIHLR
# UniProt Q495W5: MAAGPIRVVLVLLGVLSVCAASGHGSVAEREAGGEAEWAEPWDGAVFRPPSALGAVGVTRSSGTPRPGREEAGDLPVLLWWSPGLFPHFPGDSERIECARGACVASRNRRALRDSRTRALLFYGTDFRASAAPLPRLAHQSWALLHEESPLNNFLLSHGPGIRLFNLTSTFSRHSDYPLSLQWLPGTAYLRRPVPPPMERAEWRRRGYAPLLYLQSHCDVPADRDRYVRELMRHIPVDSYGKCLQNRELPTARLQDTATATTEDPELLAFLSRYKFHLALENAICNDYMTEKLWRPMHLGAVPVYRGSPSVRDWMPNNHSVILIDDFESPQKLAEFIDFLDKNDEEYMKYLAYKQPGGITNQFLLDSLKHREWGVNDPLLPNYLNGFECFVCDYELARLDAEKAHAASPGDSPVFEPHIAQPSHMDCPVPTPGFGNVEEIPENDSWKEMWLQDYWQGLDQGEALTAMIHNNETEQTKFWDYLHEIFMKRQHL
# UniProt Q9BQS8: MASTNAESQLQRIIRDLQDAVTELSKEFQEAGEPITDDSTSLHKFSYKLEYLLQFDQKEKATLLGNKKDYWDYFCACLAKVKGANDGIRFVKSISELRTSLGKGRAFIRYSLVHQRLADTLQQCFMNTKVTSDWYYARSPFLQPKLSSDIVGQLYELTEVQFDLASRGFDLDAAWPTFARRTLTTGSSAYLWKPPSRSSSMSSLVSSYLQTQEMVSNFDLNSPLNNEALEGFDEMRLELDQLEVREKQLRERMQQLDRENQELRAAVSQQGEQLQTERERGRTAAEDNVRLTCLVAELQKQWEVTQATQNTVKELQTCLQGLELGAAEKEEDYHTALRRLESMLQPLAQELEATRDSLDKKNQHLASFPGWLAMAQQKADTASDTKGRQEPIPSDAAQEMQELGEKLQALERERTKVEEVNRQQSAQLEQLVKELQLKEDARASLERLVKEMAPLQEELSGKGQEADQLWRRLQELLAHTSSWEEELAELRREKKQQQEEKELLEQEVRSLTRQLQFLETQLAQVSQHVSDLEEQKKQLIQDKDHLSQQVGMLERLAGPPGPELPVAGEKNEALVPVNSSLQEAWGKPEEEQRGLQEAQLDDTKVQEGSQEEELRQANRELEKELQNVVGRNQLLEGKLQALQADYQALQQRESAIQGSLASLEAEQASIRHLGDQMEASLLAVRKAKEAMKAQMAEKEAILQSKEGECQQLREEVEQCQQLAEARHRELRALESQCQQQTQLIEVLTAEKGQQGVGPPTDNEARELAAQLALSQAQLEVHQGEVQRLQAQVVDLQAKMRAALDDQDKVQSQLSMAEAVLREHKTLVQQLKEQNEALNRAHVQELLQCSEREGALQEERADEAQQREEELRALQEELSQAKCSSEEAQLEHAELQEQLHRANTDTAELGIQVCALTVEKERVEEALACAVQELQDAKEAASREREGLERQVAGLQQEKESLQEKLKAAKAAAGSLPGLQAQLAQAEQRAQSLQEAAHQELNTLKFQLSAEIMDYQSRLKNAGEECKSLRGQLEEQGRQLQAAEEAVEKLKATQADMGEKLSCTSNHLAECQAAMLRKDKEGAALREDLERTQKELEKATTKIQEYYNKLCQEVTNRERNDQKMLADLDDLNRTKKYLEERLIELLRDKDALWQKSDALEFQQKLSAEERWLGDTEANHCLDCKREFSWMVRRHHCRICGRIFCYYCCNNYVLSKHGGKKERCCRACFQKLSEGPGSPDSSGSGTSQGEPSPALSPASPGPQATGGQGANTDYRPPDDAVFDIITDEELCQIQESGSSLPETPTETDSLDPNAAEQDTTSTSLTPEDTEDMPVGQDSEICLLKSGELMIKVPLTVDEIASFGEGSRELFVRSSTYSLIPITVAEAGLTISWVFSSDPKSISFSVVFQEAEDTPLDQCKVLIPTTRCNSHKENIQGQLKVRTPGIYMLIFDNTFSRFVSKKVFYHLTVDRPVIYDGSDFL
# The other results are listed elsewhere or left out.
# Compound: CC1=C(C2=C(C=C1)C(=O)C3=CC=CC=C3N2CCCN)C
# Assay: log2 fold change, soluble protein after heating vs DMSO (PISA); higher = thermal stabilisation; K562 cells, 10 uM, 30 min; active = over 0.2 and 3.5 SD of the protein, either way, in both replicates (recomputed)
# In short: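 K562 cells at 2×10^6 cells/mL were given 10 μM compound for 30 min. Aliquots then went through 3 min of heating across 48°C-58°C, were pooled, and were extracted in PBS with 0.5% NP-40 at 4°C, and the supernatant after 21,000xg for 90 min was quantified by TMTpro 16plex LC-MS/MS with channel sums equalised. Thermal stability relative to control samples, from duplicates, is given as log2 fold change.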
row,Target,log2 fold change
1,GGNBP2 (UniProt Q9H3C7),inactive: -0.062
2,GAB1 isoform 2 (UniProt Q13480),inactive: 0.019
3,FPGT (UniProt O14772),inactive: 0.03
4,GALK2 (UniProt Q01415),inactive: 0.022
5,G3BP2 (UniProt Q9UN86),inactive: -0.427
6,GEMIN4 (UniProt P57678),inactive: -0.75
7,FUNDC2 (UniProt Q9BWH2),inactive: -0.02
8,FXN (UniProt Q16595),inactive: 0.177
9,FRRS1 (UniProt Q6ZNA5),inactive: -0.013
10,GGPS1 (UniProt O95749),inactive: 0.023
11,GGH (UniProt Q92820),inactive: 0
12,GFPT1 (UniProt Q06210),inactive: -0.031
13,GAPDH (UniProt P04406),inactive: 0.02
14,GCLC (UniProt P48506),inactive: -0.024
15,FUBP1 (UniProt Q96AE4),inactive: -0.015
16,GCHFR (UniProt P30047),inactive: 0.285
17,GART (UniProt C9JZG2),inactive: -0.06

row,Target,log2 fold change
1,GALNT6 (UniProt Q8NCL4),inactive: -0.035
2,FTSJ1 (UniProt Q9UET6),inactive: 0.009
3,G3BP1 (UniProt Q13283),inactive: -0.211
4,GANAB isoform 2 (UniProt Q14697),inactive: -0.012
5,FSCN1 (UniProt Q16658),inactive: 0.014
6,FXR2 (UniProt P51116),inactive: -0.024
7,FUT11 (UniProt Q495W5),inactive: -0.245
8,FYCO1 isoform 4 (UniProt Q9BQS8),inactive: 0.018
9,GFM1 (UniProt Q96RP9),inactive: 0.129
10,GALM (UniProt Q96C23),inactive: 0.027
11,FTH1 (UniProt P02794),inactive: -0.005
12,GGCX (UniProt P38435),inactive: -0.023
13,GGA3 (UniProt Q9NZ52),inactive: 0.092
14,FRG1 (UniProt Q14331),inactive: 0.053
15,GHITM (UniProt Q9H3K2),inactive: 0
16,GFER (UniProt P55789),inactive: -0.003

# Reformatted as tab-separated lines: entries from further up.
row	Target	log2 fold change
4	GALK2 (UniProt Q01415)	inactive: 0.022
5	G3BP2 (UniProt Q9UN86)	inactive: -0.427
